According to PubChem BioAssay AID190 (DTP/NCI, 2004):
The list does not hold the whole screen: it gathers some chemical classes. Not every dose and run of a compound is shown. T/C is the treated group as % of the vehicle group. Where survival is the endpoint, the PubChem record calls one and a half times the control and up active, and a quarter to a half above the control has no call in these data; cut-offs in other NCI protocols can differ. Schedules are NCI's codes, read here as Q, the interval in days (D) or hours (H), X, the number of doses. Some entries show no survivor count and are marked so; the dose need not have been tolerated. Some entries hold several experiments; the results are listed from low to high.

Test system: AKR/Lw mice, AKR lymphoma ip, median survival T/C
Test: NCI In Vivo Anticancer Drug Screen. Data for tumor model Lymphoma AKR (Transplanted) (intraperitoneal) in AKR/Lw mice
Settings: T/C endpoint: median survival time, higher T/C = longer survival
Experimental: The antitumor activity of compounds was measured in mice bearing transplantable tumors. Survival or tumor size were measured and the results are expressed as the measurement made in the treated group (T) divided by the measurement made in the vehicle treated control group (C). The tumor model used in this assay is Lymphoma AKR (Transplanted) (intraperitoneal) in AKR/Lw mice

For CC(=O)OCC12CCC(C)=CC1OC1C(O)C(OC(C)=O)C2(C)C12CO2 (centres undefined), the T/C (dose: 0.03 mg/kg/injection, schedule: Q04DX003 (ip), vehicle: saline) was 105 % of control [survivor count not shown], the T/C (dose: 0.06 mg/kg/injection, schedule: Q04DX003 (ip), vehicle: saline) was 113 % of control [survivor count not shown] and the T/C (dose: 0.15 mg/kg/injection, schedule: Q04DX003 (ip), vehicle: saline) was 105 % of control [survivor count not shown]. For the same compound, the T/C (dose: 0.2 mg/kg/injection, schedule: Q01DX009 (ip), vehicle: saline) was 92 [survivor count not shown] and 191 % of control [survivor count not shown], the T/C (dose: 0.25 mg/kg/injection, schedule: Q04DX003 (ip), vehicle: saline) was 104 [survivor count not shown], 108 [survivor count not shown], 114 % of control [survivor count not shown] and the T/C (dose: 0.4 mg/kg/injection, schedule: Q01DX009 (ip), vehicle: saline) was 133 % of control [survivor count not shown]. For the same compound, the T/C (dose: 0.5 mg/kg/injection, schedule: Q04DX003 (ip), vehicle: saline) was 87 [survivor count not shown], 102 [survivor count not shown], 131 % of control [survivor count not shown], the T/C (dose: 0.62 mg/kg/injection, schedule: Q04DX003 (ip), vehicle: saline) was 97 % of control [survivor count not shown] and the T/C (dose: 0.75 mg/kg/injection, schedule: Q01DX009 (ip), vehicle: saline) was 115 % of control [survivor count not shown]. For the same compound, the T/C (dose: 1.0 mg/kg/injection, schedule: Q01DX001 (ip), vehicle: saline) was 96 [survivor count not shown] and 106 % of control [survivor count not shown], the T/C (dose: 1.0 mg/kg/injection, schedule: Q01DX009 (ip), vehicle: saline) was 91 [survivor count not shown] and 107 % of control [survivor count not shown] and the T/C (dose: 1.0 mg/kg/injection, schedule: Q04DX003 (ip), vehicle: saline) was 102 [survivor count not shown], 109 [survivor count not shown], 113 [survivor count not shown], 116 [survivor count not shown], 128 % of control [survivor count not shown]. For the same compound, the T/C (dose: 1.2 mg/kg/injection, schedule: Q04DX003 (ip), vehicle: saline) was 139 % of control [survivor count not shown], the T/C (dose: 1.25 mg/kg/injection, schedule: Q01DX001 (ip), vehicle: saline) was 118 % of control [survivor count not shown] and the T/C (dose: 1.25 mg/kg/injection, schedule: Q04DX003 (ip), vehicle: saline) was 127 % of control [survivor count not shown]. For the same compound, the T/C (dose: 1.5 mg/kg/injection, schedule: Q01DX001 (ip), vehicle: saline) was 100 % of control [survivor count not shown], the T/C (dose: 2.0 mg/kg/injection, schedule: Q01DX001 (ip), vehicle: saline) was 103 [survivor count not shown] and 134 % of control [survivor count not shown] and the T/C (dose: 2.0 mg/kg/injection, schedule: Q04DX003 (ip), vehicle: saline) was 87 [survivor count not shown], 104 [survivor count not shown], 142 % of control [survivor count not shown]. The T/C (dose: 2.5 mg/kg/injection, schedule: Q01DX001 (ip), vehicle: saline) was 105 % of control [survivor count not shown], the T/C (dose: 2.5 mg/kg/injection, schedule: Q04DX003 (ip), vehicle: saline) was 122 [survivor count not shown], 134 [survivor count not shown], 138 [survivor count not shown], 141 % of control [survivor count not shown] and the T/C (dose: 3.0 mg/kg/injection, schedule: Q01DX001 (ip), vehicle: saline) was 90 % of control [survivor count not shown]. The T/C (dose: 4.0 mg/kg/injection, schedule: Q01DX001 (ip), vehicle: saline) was 100 % of control [survivor count not shown], the T/C (dose: 4.0 mg/kg/injection, schedule: Q04DX003 (ip), vehicle: water) was 144 % of control [survivor count not shown] and the T/C (dose: 5.0 mg/kg/injection, schedule: Q04DX003 (ip), vehicle: saline) was 110 [survivor count not shown], 152 [survivor count not shown], 161 % of control [survivor count not shown]. The T/C (dose: 6.0 mg/kg/injection, schedule: Q01DX001 (ip), vehicle: saline) was 119 % of control [survivor count not shown], the T/C (dose: 7.5 mg/kg/injection, schedule: Q04DX003 (ip), vehicle: saline) was 150 % of control [survivor count not shown] and the T/C (dose: 10.0 mg/kg/injection, schedule: Q01DX001 (ip), vehicle: saline) was 107 % of control [survivor count not shown]. For the same compound, the T/C (dose: 15.0 mg/kg/injection, schedule: Q01DX001 (ip), vehicle: saline) was 113 % of control [survivor count not shown] and the T/C (dose: 20.0 mg/kg/injection, schedule: Q01DX001 (ip), vehicle: saline) was 120 % of control [survivor count not shown].
